The other results are listed elsewhere or left out. The main result of the screen is listed elsewhere. These columns were measured beside it and carry no call. Most of these compounds were active or inconclusive in the main read-out, so they are no random draw. Words in brackets tell the shape of the fitted curve; partial curves, single points and poor fits give uncertain potencies.
Experiment: qHTS Assay for Lipid Storage Modulators in Drosophila S3 Cells;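 for cell number change: cells counted by Cell Tracker Red CMTPX staining in the red channel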
Conditions: BODIPY lipid droplet fluorescence, 18-24 h; for cell number change: measured here: cell count max response, cells fed with added oleic acid
In short: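 Drosophila S3 cells loaded with oleic acid (400 uM, as added) and compounds at several concentrations; lipid droplets imaged by 488-nm laser-scanning cytometry, 500–530 nm intensity and object ratio to cell channel. Percent activity normalized to 20 uM Triacsin C.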

[1] = measured here: lipid fluorescence (Fed channel) AC50, cells fed with added oleic acid
[2] = measured here: cell number channel AC50, cells fed with added oleic acid

SMILES | cell number change [%] | AC50 [1] | AC50 [2]
COc1ccc(-n2nc3c(c2NC(=O)C24CC5CC(CC(C5)C2)C4)CS(=O)C3)cc1 (stereo unspecified) | 11.6 | 16.4 µM [rising, single point] | –
O=C(NCCc1ccccc1F)c1ccc2c(c1)OCCO2 | 10.5 | 6.51 µM [rising, partial curve, poor fit] | –
Cc1ccc2occ(/C=N/NC(=O)c3ccc(Cl)cc3)c(=O)c2c1 | 20.9 | 1.58 µM [rising, full curve, poor fit] | –
CCCC(C)NC(=O)CSCc1ccc(OC)cc1 (stereo unspecified) | -13.3 | 2 µM [falling, full curve] | –
Cc1ccc(OCCOc2cccc3ccc(C)nc23)c([N+](=O)[O-])c1 | -1.54 | – | –
N#Cc1c(NC(=O)COC(=O)c2ccc(F)cc2)sc2c1CCC2 | -14 | 0.0291 µM [falling, full curve, poor fit] | –
O=C(NC1CCCCC1)c1ccc(Cl)c(NC(=O)c2ccccc2F)c1 | 8.31 | 0.058 µM [rising, full curve, poor fit] | –
O=C(CSc1nc(=O)n2cc(Cl)ccc2n1)Nc1ccc2c(c1)OCO2 | 33.5 | – | 0.291 µM [rising, single point]
COC(=O)c1ccc(C2Nc3ccccc3NC3=C2C(=O)CC(C)(C)C3)cc1 (stereo unspecified) | 7.61 | 29.1 µM [rising, single point] | –
Cc1nn(C)c(C)c1/C=C/C(=O)O | -18.3 | 6.51 µM [falling, partial curve] | 0.082 µM [falling, full curve, poor fit]
COc1ccccc1-n1c(COc2ccccc2-c2ccccc2)nnc1SCC(=O)c1c(N)n(C)c(=O)n(C)c1=O | – | 6.51 µM [rising, single point] | 6.51 µM [rising, single point]
COc1cccc(-c2ncc3ccccc3c2COC(=O)N2CCCCC2)c1 | 14.6 | – | –
Cc1cc(C)c(-n2c(SCc3nc4ccccc4s3)n[nH]c2=O)c(C)c1 | 19.4 | – | 0.164 µM [rising, full curve, poor fit]
O=C(c1ccc(Cl)c(S(=O)(=O)Nc2ccccc2C(=O)N2CCc3ccccc3C2)c1)N1CCc2ccccc2C1 | 19.6 | 13 µM [rising, partial curve] | –
Cc1ccc(Sc2nc(C)cc(C)c2S(C)(=O)=O)cc1 | 10.5 | 6.51 µM [rising, full curve, poor fit] | –
CCn1ncc(C(=O)Nc2ccc(S(=O)(=O)N3CCCC3)cc2)c1C | -1.48 | 0.731 µM [rising, full curve, poor fit] | –
O=C(/C=C/c1ccco1)N/C(=C\c1ccccc1)C(=O)NCCc1nc2ccccc2[nH]1 | -41.1 | 6.51 µM [rising, single point] | 2.59 µM [rising, partial curve]
C/[N+]([O-])=C/c1c(OCc2ccc(Cl)cc2Cl)ccc2ccccc12 | -6.15 | 0.58 µM [falling, single point] | 0.58 µM [falling, single point]
COc1ccc(N/C(C)=C2/C(=O)C(=O)N(CCO)C2c2ccc([N+](=O)[O-])cc2)cc1 (stereo unspecified) | -12.1 | 29.1 µM [falling, single point] | –
Cc1onc(-c2ccccc2Cl)c1C(=O)NCc1ccccc1F | -8.91 | 29.1 µM [rising, single point] | –

SMILES | cell number change [%] | AC50 [1] | AC50 [2]
COc1ccc(OC)c(NS(=O)(=O)c2cccc3cccnc23)c1 | 19.8 | 29.1 µM [falling, single point] | –
CCCOc1nc2c(c(=O)n(C)c(=O)n2C)n1C | 9.57 | 29.1 µM [rising, single point] | –
Cn1c(=O)c2ncn(CC(=O)NCCOc3ccccc3)c2n(C)c1=O | 1.02 | 29.1 µM [rising, single point] | –
Cc1ccc(C[n+]2ccccc2)cc1 | -10.1 | 32.6 µM [falling, single point] | –
Cc1ccc2cccc(OCCCOc3ccccc3CO)c2n1 | -18.1 | 18.4 µM [rising, partial curve, poor fit] | –
COc1ccc(-n2nc([N+](=O)[O-])c(=NCCc3ccccc3)n2O)cc1 | 1.06 | 2.31 µM [rising, single point] | –
c1cnc(N2CCSCC2)nc1 | 1.04 | 0.058 µM [falling, full curve, poor fit] | –
O=C(CCn1cnnn1)Nc1cccc(F)c1 | -27.1 | 0.651 µM [falling, full curve] | 3.66 µM [falling, single point]
N=c1ncn(CC(O)CN2CCOCC2)c2nc(N3CCOCC3)[nH]c12 (stereo unspecified) | -12.6 | 3.26 µM [falling, partial curve] | –
Cc1c(N2C(=O)CSC2c2ccc(F)cc2)c(=O)n(-c2ccccc2)n1C (stereo unspecified) | -8.86 | 1.46 µM [rising, partial curve] | 0.291 µM [rising, full curve, poor fit]
O=C1CSC(c2ccccn2)N1c1ccc(F)cc1F (stereo unspecified) | – | – | 6.51 µM [falling, single point]
CC(C)(C)C(=O)/C=C(\N)c1ccncc1 | 6.84 | – | –
CC(C(=O)Nc1ccccc1C(=O)O)n1c(C(F)(F)F)nc2ccccc21 (stereo unspecified) | 29 | – | –
NC(=O)c1cc([N+](=O)[O-])ccc1NCc1ccc(N)cc1 | 0.528 | 0.184 µM [falling, full curve, poor fit] | –
Cc1ccc2nc(NC(=O)Cn3nc(C)c([N+](=O)[O-])c3C)sc2c1 | -1.84 | – | 0.651 µM [falling, full curve]
O=C(CSc1nc2ccccc2o1)N/N=C/c1ccc(C(=O)O)cc1 | -14.4 | 0.116 µM [falling, full curve, poor fit] | 0.103 µM [falling, full curve, poor fit]
Cc1ccc(C)c(N2CCN(C(=O)CCCn3c(=O)c4cccn4c4cccnc43)CC2)c1 | – | 6.51 µM [falling, partial curve] | –
COc1ccc2c(c1)cc1n2CCN=C1NCCO | -74.6 | 29.1 µM [falling, single point] | 20.6 µM [falling, partial curve]
Cc1ccc(-c2noc(CCC(=O)Nc3cc(C)ccn3)n2)cc1 | 15.6 | 29.1 µM [falling, partial curve] | –
CCn1c2ccccc2c2cc(NC(=O)CN3CCCC3)ccc21 | 9.27 | – | –

Whole records as entered above.
`CC(C(=O)Nc1ccccc1C(=O)O)n1c(C(F)(F)F)nc2ccccc21` (stereo unspecified) is listed with cell number change [%]: 29
`COc1ccc(OC)c(NS(=O)(=O)c2cccc3cccnc23)c1` is listed with cell number change [%]: 19.8; AC50 [1]: 29.1 µM [falling, single point]

Following part:

SMILES | cell number change [%] | AC50 [1] | AC50 [2]
Cc1c(C#N)c2ncn(CCCN(C)C)c(=O)c2n1-c1ccccc1 | 0.75 | 0.92 µM [falling, full curve] | –
Cc1cccc(C)c1N1CCN(CCn2c(=S)[nH]c3ccccc3c2=O)CC1 | -34 | – | 18.4 µM [falling, single point]
O=C1c2cccc3cccc(c23)C(=O)N1OS(=O)(=O)c1ccc(Cl)cc1 | -69.8 | 6.51 µM [falling, partial curve, poor fit] | 3.66 µM [falling, full curve]
Cc1ccc(C2C(=O)c3ccccc3C2=O)cc1 | -43.1 | – | 0.00517 µM [falling, full curve, poor fit]
CC(NC(=O)c1ccccc1F)C12CC3CC(CC(C3)C1)C2 (stereo unspecified) | -50.7 | 18.4 µM [falling, single point] | 16.4 µM [falling, partial curve]
CCC[C@H](CN[C@@H](CNC)[C@H](C)O)NCCc1ccc(OC)cc1 | 2.99 | – | –
O=C(OCC(=O)N(CCc1ccccc1)Cc1ccccc1)c1ccccc1O | 108 | – | 14.6 µM [rising, partial curve]
Cc1cc(C)n2nc(SCC(=O)N(CC(C)C)c3c(N)n(CC(C)C)c(=O)[nH]c3=O)nc2n1 | 4.51 | 13 µM [falling, partial curve] | –
C#CCOc1c(Br)cc(/C=N\NC(=O)CN2CCOCC2)cc1OCC | 8.27 | – | 6.51 µM [rising, single point]
O=C(Oc1ccccc1N1CCOCC1)c1ccccc1 | 27.2 | 4.61 µM [rising, full curve] | –
N#C/C(=C\c1ccc2c(c1)OCCO2)C(=O)Nc1nccs1 | -35.2 | 0.206 µM [falling, single point] | 32.6 µM [falling, single point]
O=C(O)CCC(NC(=S)Nc1ccccc1)C(=O)O (stereo unspecified) | -18.5 | – | –
Cc1ccc(CNCc2ccco2)cc1 | -2.38 | 20.6 µM [rising, single point] | –
Cc1ncc2c(c1OC(=O)c1ccccc1)COC(C)(C)OC2 | -0.23 | 4.11 µM [rising, partial curve] | –
Cc1ccc(-c2csc3ncnc(NCCC(=O)O)c23)cc1 | -9.47 | – | –
COc1cc(NC(=O)C2CCCO2)c(OC)cc1NC(=O)c1ccccc1 (stereo unspecified) | 4.18 | 2.59 µM [rising, full curve] | –
Cc1ccc(S(=O)(=O)NCCC(=O)N2CCOCC2)cc1C | -9.35 | 0.651 µM [falling, full curve, poor fit] | –
CCOc1ccc(OCc2ccc(C(=O)NCc3ccncc3)o2)cc1 | 0.625 | 6.51 µM [rising, partial curve, poor fit] | –
COc1cc(NC(=O)c2cc(C(C)C)on2)c(OC)cc1Cl | 32.8 | 6.51 µM [rising, single point] | 9.2 µM [rising, partial curve]
CCCCN(C(=O)Cc1ccc(S(=O)(=O)N2CCOCC2)s1)c1c(N)n(CCCC)c(=O)[nH]c1=O | – | 29.1 µM [rising, single point] | 6.51 µM [rising, single point]

Copied from the list.
Under AC50 [1], CC(NC(=O)c1ccccc1F)C12CC3CC(CC(C3)C1)C2 (stereo unspecified) has the entry 18.4 µM [falling, single point]
Under cell number change [%], O=C(O)CCC(NC(=S)Nc1ccccc1)C(=O)O (stereo unspecified) has the entry -18.5

Source: PubChem BioAssay AID2685 (National Center for Advancing Translational Sciences (NCATS), 2010)
